Library screen at single concentrations

Sequences of proteins named here, by UniProt entry; tags and fusion partners are left off. Residues count along the entry.
UniProt I6X8D2, whole entry: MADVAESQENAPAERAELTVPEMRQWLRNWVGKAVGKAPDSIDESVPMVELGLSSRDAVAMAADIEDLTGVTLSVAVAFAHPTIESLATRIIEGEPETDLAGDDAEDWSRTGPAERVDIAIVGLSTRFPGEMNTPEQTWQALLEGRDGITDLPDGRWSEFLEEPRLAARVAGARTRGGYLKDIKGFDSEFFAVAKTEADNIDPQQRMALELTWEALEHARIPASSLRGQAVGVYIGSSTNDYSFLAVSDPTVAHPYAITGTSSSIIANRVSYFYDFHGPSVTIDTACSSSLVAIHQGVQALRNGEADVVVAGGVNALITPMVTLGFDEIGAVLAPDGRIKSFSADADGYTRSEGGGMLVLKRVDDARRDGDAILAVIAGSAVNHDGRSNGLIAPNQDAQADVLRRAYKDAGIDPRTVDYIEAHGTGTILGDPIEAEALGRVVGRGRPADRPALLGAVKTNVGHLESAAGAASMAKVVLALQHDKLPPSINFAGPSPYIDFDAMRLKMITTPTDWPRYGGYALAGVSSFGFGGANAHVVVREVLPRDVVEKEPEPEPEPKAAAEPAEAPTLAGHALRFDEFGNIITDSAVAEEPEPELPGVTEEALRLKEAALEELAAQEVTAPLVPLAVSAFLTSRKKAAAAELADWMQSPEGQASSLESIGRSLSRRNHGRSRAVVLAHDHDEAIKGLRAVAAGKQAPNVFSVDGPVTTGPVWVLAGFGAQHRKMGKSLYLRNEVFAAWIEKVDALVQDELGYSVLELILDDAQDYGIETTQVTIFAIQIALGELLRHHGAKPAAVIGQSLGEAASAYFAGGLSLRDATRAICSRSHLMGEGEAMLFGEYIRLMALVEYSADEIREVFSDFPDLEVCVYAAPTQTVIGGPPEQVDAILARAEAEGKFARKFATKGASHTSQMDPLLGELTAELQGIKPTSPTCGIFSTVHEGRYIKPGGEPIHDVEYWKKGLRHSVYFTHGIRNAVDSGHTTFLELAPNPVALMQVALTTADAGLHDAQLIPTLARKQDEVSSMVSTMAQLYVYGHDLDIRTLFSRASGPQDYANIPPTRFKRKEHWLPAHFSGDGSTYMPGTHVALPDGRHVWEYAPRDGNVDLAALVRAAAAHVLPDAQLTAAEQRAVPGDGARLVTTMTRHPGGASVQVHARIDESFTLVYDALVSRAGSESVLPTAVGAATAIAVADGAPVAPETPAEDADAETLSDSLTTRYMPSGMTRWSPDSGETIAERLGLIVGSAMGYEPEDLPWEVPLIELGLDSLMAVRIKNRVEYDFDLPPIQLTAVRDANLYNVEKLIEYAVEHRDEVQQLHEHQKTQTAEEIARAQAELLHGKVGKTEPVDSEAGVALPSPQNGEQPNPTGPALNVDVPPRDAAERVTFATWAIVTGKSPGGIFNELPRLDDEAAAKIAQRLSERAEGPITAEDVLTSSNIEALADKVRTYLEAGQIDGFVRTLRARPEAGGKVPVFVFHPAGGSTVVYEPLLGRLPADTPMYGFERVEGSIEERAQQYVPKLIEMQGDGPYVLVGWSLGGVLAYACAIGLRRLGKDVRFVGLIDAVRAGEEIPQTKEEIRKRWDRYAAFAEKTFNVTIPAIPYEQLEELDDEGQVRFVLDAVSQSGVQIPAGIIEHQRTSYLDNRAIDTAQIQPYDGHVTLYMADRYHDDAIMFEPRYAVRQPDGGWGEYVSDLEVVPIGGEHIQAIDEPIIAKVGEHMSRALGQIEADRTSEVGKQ
UniProt Q8IDJ8, 1-583: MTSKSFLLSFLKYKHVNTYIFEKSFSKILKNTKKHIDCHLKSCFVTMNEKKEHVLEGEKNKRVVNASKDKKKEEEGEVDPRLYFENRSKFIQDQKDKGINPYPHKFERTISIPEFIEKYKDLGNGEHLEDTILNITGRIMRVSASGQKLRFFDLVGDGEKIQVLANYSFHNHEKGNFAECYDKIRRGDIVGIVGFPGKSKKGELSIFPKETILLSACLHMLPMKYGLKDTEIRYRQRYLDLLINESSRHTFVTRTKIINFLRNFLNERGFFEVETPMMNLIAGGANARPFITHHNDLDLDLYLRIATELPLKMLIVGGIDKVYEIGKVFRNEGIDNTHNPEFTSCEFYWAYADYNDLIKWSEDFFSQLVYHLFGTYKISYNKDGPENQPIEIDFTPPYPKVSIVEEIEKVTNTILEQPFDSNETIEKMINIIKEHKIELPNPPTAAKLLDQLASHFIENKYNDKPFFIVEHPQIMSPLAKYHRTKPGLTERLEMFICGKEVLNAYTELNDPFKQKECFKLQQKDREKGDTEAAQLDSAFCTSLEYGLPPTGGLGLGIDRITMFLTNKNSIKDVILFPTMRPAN
UniProt P9WNZ1, whole entry: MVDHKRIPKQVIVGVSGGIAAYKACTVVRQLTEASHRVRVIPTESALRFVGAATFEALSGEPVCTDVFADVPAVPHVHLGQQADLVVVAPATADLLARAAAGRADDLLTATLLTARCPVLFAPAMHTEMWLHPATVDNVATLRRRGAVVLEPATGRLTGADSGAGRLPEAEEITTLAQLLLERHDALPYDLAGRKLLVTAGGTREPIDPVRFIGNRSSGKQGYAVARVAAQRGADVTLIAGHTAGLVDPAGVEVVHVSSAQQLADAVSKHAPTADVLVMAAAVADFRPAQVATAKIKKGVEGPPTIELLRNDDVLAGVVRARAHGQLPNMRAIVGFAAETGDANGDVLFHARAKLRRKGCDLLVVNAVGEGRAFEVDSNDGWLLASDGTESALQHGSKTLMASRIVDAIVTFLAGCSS

Toxoplasma: 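Assay of Toxoplasma gondii numbers, read through their beta-galactosidase reporter with a colour substrate. Concentration: 10 µM. Higher reads as fewer parasites (inferred from which compounds were picked for retests). About 67,000 compounds were tested under these conditions; 0.38% (about 260) showed 50% or more at least once.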
Pks13 thioesterase: 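Polyketide synthase Pks13, Mycobacterium tuberculosis (UniProt I6X8D2). Enzyme assay of the thioesterase domain of polyketide synthase 13; the read-out is not stated. Compounds at 30 µM. Higher reads as stronger inhibition (inferred from which compounds were picked for retests). Size under these conditions: about 67,000 compounds, about 300 of them at 50% or above in at least one test.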
PfKRS1: 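Enzyme assay of the cytosolic lysyl-tRNA synthetase in 384-well plates, read by luminescence. Target: Lysine-tRNA ligase, Plasmodium falciparum 3D7 (UniProt Q8IDJ8). Compounds at 30 µM. Direction is inferred from only a few compounds that gave an IC50; most scored high, so higher reads as stronger inhibition. About 69,000 compounds were tested under these conditions; 0.071% (about 49) showed 50% or more at least once.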
CoaBC: 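Coenzyme A biosynthesis protein CoaBC, Mycobacterium tuberculosis (UniProt P9WNZ1). Enzyme assay of CoaBC with a phosphate dye (Biomol Green) read at 650 nm. Compounds at 30 µM. Higher reads as stronger inhibition, judged from the few compounds that gave an IC50. Most strong results did not repeat in a second test. Of about 67,000 compounds tested this way, about 40 (0.06%) reached 50% or more in at least one test.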

Each number is a percent effect as filed. The controls that fix the scale are not given in the record; negative values are as filed. This is an unselected part of the compounds tested. A dash means the value is not listed here; it may have been measured.

SMILES,Toxoplasma,Pks13 thioesterase,PfKRS1,CoaBC
Cc1ccc(F)c(-n2nnc(C(=O)O)c2-c2ccncc2)c1,1.76%,-33.5%,7.394%,-0.135%
CCCn1nc2c(cc1=O)CN(Cc1nc(-c3ccoc3)no1)CC2,3.018%,-6.065%,3.224%,-2.066%
CCOCC1CN(CC2CC2)Cc2nn(C)cc21 (stereo not shown),-,-2.582%,5.266%,5.071%
COC(=O)CN1CC2(CCNCC2)COc2ccccc2S1(=O)=O,-,-4.11%,4.807%,3.008%
O=C(NC[C@@H]1CCCN1)c1cc(COc2cccc(C(F)(F)F)c2)[nH]n1,-6.979%,-12.05%,5.406%,-44.73%
Cc1ccc([C@]2(O)CC[C@H]3CN(Cc4cccc(F)c4F)C[C@H]32)nc1,-,38.56%,4.662%,3.874%
CC(C)c1nn(C)cc1CNCc1ccnc(N(C)C)c1.Cl,9.639%,-,-,-
COc1cc(N(C)CCCn2nc(C)cc2C)ncn1,17.66%,-7.952%,13.26%,0.1167%
OC1CCN(Cc2ccnc(-c3cccnc3)n2)CC1,-,3.707%,0.8899%,1.611%
CCC(NC(=O)c1cc(CC(C)C)nn1C)c1ccnn1C (stereo not shown),-9.521%,27.17%,-0.5852%,-0.6536%
COc1nc2c(cc1C(=O)N1C[C@H](N)C[C@H]1C(=O)NC(C)C)CCC2,-7.735%,39.12%,2.474%,9.283%
Cc1ccccc1CC(=O)N1C[C@@H](O)[C@H](N2CCN(C)CC2)C1,8.075%,-3.588%,2.212%,10.49%
COc1cccc(C(=O)NCCCN2CCc3ccccc3C2)c1OC,-4.972%,-2.045%,0.8733%,8.214%
O=C(NC1CC(=O)N(C2Cc3ccccc3C2)C1)c1csnn1 (stereo not shown),1.531%,-2.637%,-0.2943%,2.355%
CCc1ncnc2c1CCN(Cc1nccs1)CC2.O=C(O)C(F)(F)F,4.619%,-,-,-
O=C(O)C(F)(F)F.[H][C@@]12COC[C@@H](C(=O)N3CCCCO3)[C@]1([H])CN(Cc1cc(C)on1)C2,-8.994%,-,-,-
CC(=O)N(Cc1noc(C)n1)C1CCN(Cc2ccc(C#N)cc2)C1 (stereo not shown),-9.516%,-35.95%,-2.318%,-8.311%
COc1c(NS(=O)(=O)c2ccc(C)c(C)c2)c(C)nn1C,-3.868%,-23.32%,-0.1146%,1.411%
Cc1cc(=O)c(C(=O)Nc2cccc(CCN3CCCC3)c2)c[nH]1,-1.831%,-31.76%,4.213%,-19.02%
CC(C)N(C)Cc1cn2c(n1)CN(C(=O)Cc1ccsc1)CC2.O=C(O)C(F)(F)F,18.66%,-,-,-
c1ccc(OCc2ccncc2)c(CNC2CCc3ncnn3C2)c1 (stereo not shown),-52.71%,-13.77%,0.211%,4.404%
CN(C)C(=O)NC1COC2(CCN(C(=O)Nc3ccccc3)CC2)C1 (stereo not shown),-3.05%,-29.87%,-3.301%,15.28%
Cl.O=C(NC1CCCC1)c1ccc(C2CCCNC2)nc1 (stereo not shown),-2.454%,-,-,-
CNC(=O)CNC(=O)Nc1ccc(F)c(Br)c1,-4.104%,1.792%,3.123%,-0.813%
CC(C)Cn1nnnc1SC(C(=O)NCc1cccnc1)C(C)C (stereo not shown),2.816%,-20.67%,-1.233%,3.226%
Cc1csc(C2CCCCN2C(=O)CN(C)C2CC2)n1 (stereo not shown),-0.1687%,-4.361%,2.686%,4.178%
CCc1noc(C(C)N2CCN(CC)CC2)n1 (stereo not shown),5.5%,-11.92%,0.7042%,-4.178%
Cc1ccc(N2CCCC(NCc3ccc(C)s3)C2)nn1 (stereo not shown),-5.437%,-4.11%,-1.405%,9.068%
COCCN1CCCc2sc(C(=O)NCC3CCCO3)nc21 (stereo not shown),7.298%,-10.95%,7.501%,0.6165%
O=C(CN1CCC(c2cccc(F)c2)C1)NCC(F)(F)F (stereo not shown),-13.97%,-12.92%,-1.443%,3.457%
O=S(=O)(NCc1ccccc1)Nc1ccc(-n2ccnc2)cc1,-5.464%,2.275%,-8.225%,0.6494%
CCn1cnc2c(c(Br)nn2C)c1=O,-3.386%,-11.6%,1.87%,0.609%
OCC1CCCCN1CCn1ccnc1-c1nc2ccccc2[nH]1 (stereo not shown),-7.073%,-1.284%,6.921%,-0.8264%
O=C(O)C(F)(F)F.O=C(c1ccncc1)N1CCc2ncnc(C3CC3)c2CC1,-5.059%,-,-,-
O=C(CCn1cc(Cl)cn1)N1CCC2(CC1)[C@H](O)C[C@@H]2OCCO,12.06%,6.828%,2.815%,-0.9828%
COCC(=O)N1CC2(CCN(c3ccccc3)C2)C1,0.4184%,-37.41%,5.68%,-3.484%
COCCN1C[C@@H]2CN(C(=O)[C@H]3CCCO3)C[C@@H]2C1=O,-,0.8348%,5.7%,0%
Fc1ccc(-c2nc(CNCCn3cccn3)cs2)cc1,4.77%,-3.815%,-1.611%,8.999%
Cc1noc(C)c1CN1CCc2ncnc(-c3ccoc3)c2CC1.O=C(O)C(F)(F)F,-39.69%,-,-,-
O=C(O)C(F)(F)F.O=C(c1ccco1)N1CCCC2(CN(Cc3ccc(F)cc3)CCO2)C1 (stereo not shown),5.172%,-,-,-

The last 3 entries again:

SMILES,Toxoplasma,Pks13 thioesterase,PfKRS1,CoaBC
Fc1ccc(-c2nc(CNCCn3cccn3)cs2)cc1,4.77%,-3.815%,-1.611%,8.999%
Cc1noc(C)c1CN1CCc2ncnc(-c3ccoc3)c2CC1.O=C(O)C(F)(F)F,-39.69%,-,-,-
O=C(O)C(F)(F)F.O=C(c1ccco1)N1CCCC2(CN(Cc3ccc(F)cc3)CCO2)C1 (stereo not shown),5.172%,-,-,-

From ChEMBL document CHEMBL3988442, “University of Dundee, Small-Polar-MMV Screening Library” (2021).